Earlier results, collected in EP1829539A2, “A method for treating tension-type headache” (priority 1996, dated 1998).
For at least one compound, name, drawing or mass did not settle the structure.

Test system: chronic or episodic tension-type headache
Settings: Wörz et al., 1996; cited from earlier work

SMILES: CCOC(=O)Nc1ccc(NCc2ccc(F)cc2)nc1N [Flupirtin]
- Effect in tension-type headache: positive effects
